# Experimental data taken from the supplement of paper PMC8728848.
# This is one part of the list.
# B1: OS9-MRH (Homo sapiens), Q13438 (protein)
# chain: IPELLSPMRDAPCLLKTKDWWTYEFCYGRHIQQYHMEDSEIKGEVLYLGYYQSAFDWDDETAKASKQHRLKRYHSQTYGNGSKCDLNGRPREAEVRFLCDEGAGISGDYIDRVDEPLSCSYVLTIRTPRLCPHPLLRPPPSAAPQAI
# Tests used:
# Assay in all cases: glycan array binding signal (z-score within array); higher = stronger binding
# Conditions in all cases: glycan notation: IUPAC condensed, linker removed
# [1] = molecular target: Gal(b1-4)GlcNAc(b1-3)Gal(b1-4)GlcNAc(b1-2)Man(a1-3)[Gal(b1-4)GlcNAc(b1-3)Gal(b1-4)GlcNAc(b1-2)Man(a1-6)]Man(b1-4)GlcNAc(b1-4)[Fuc(a1-6)]GlcNAc
# Outline: (§1)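 Negative Z-scores can be read as non-binding. The Z-score is calculated within each array and then averaged across arrays of one protein sequence at different concentrations or buffers and across linkers. Arrays, 3228 in all, were curated from the Consortium for Functional Glycomics database and kept only where the protein sequence was available.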
# [2] = molecular target: Gal(b1-4)GlcNAc(b1-3)Gal(b1-4)GlcNAc(b1-2)[Gal(b1-4)GlcNAc(b1-3)Gal(b1-4)GlcNAc(b1-6)]Man(a1-6)[Gal(b1-4)GlcNAc(b1-3)Gal(b1-4)GlcNAc(b1-2)Man(a1-3)]Man(b1-4)GlcNAc(b1-4)GlcNAc
# Outline: as §1
# [3] = molecular target: Gal(b1-4)GlcNAc(b1-3)Gal(b1-4)GlcNAc(b1-2)[Gal(b1-4)GlcNAc(b1-3)Gal(b1-4)GlcNAc(b1-6)]Man(a1-6)[Gal(b1-4)GlcNAc(b1-3)Gal(b1-4)GlcNAc(b1-2)Man(a1-3)]Man(b1-4)GlcNAc(b1-4)[Fuc(a1-6)]GlcNAc
# Outline: as §1
# [4] = molecular target: Gal(b1-4)GlcNAc(b1-3)Gal(b1-4)GlcNAc(b1-3)Gal(b1-4)GlcNAc
# Outline: as §1
# [5] = molecular target: Gal(b1-4)GlcNAc(b1-3)Gal(b1-4)GlcNAc(b1-3)Gal(b1-4)GlcNAc(b1-2)Man(a1-3)[Gal(b1-4)GlcNAc(b1-3)Gal(b1-4)GlcNAc(b1-3)Gal(b1-4)GlcNAc(b1-2)Man(a1-6)]Man(b1-4)GlcNAc(b1-4)GlcNAc
# Outline: as §1
# [6] = molecular target: Gal(b1-4)GlcNAc(b1-3)Gal(b1-4)GlcNAc(b1-3)Gal(b1-4)GlcNAc(b1-2)Man(a1-3)[Gal(b1-4)GlcNAc(b1-3)Gal(b1-4)GlcNAc(b1-3)Gal(b1-4)GlcNAc(b1-2)Man(a1-6)]Man(b1-4)GlcNAc(b1-4)[Fuc(a1-6)]GlcNAc
# Outline: as §1
# [7] = molecular target: Gal(b1-4)GlcNAc(b1-3)Gal(b1-4)GlcNAc(b1-3)Gal(b1-4)GlcNAc(b1-2)[Gal(b1-4)GlcNAc(b1-3)Gal(b1-4)GlcNAc(b1-3)Gal(b1-4)GlcNAc(b1-6)]Man(a1-6)[Gal(b1-4)GlcNAc(b1-3)Gal(b1-4)GlcNAc(b1-3)Gal(b1-4)GlcNAc(b1-2)Man(a1-3)]Man(b1-4)GlcNAc(b1-4)[Fuc(a1-6)]GlcNAc
# Outline: as §1
# [8] = molecular target: Gal(b1-4)GlcNAc(b1-3)Gal(b1-4)GlcNAc(b1-3)Gal(b1-4)GlcNAc(b1-3)Gal(b1-4)GlcNAc(b1-2)Man(a1-3)[Gal(b1-4)GlcNAc(b1-3)Gal(b1-4)GlcNAc(b1-3)Gal(b1-4)GlcNAc(b1-3)Gal(b1-4)GlcNAc(b1-2)Man(a1-6)]Man(b1-4)GlcNAc(b1-4)GlcNAc
# Outline: as §1
# [9] = molecular target: Gal(b1-4)GlcNAc(b1-3)Gal(b1-4)GlcNAc(b1-3)Gal(b1-4)GlcNAc(b1-3)Gal(b1-4)GlcNAc(b1-2)Man(a1-3)[Gal(b1-4)GlcNAc(b1-3)Gal(b1-4)GlcNAc(b1-3)Gal(b1-4)GlcNAc(b1-3)Gal(b1-4)GlcNAc(b1-2)Man(a1-6)]Man(b1-4)GlcNAc(b1-4)[Fuc(a1-6)]GlcNAc
# Outline: as §1
# [10] = molecular target: Gal(b1-4)GlcNAc(b1-3)Gal(b1-4)GlcNAc(b1-3)Gal(b1-4)GlcNAc(b1-3)Gal(b1-4)GlcNAc(b1-2)[Gal(b1-4)GlcNAc(b1-3)Gal(b1-4)GlcNAc(b1-3)Gal(b1-4)GlcNAc(b1-3)Gal(b1-4)GlcNAc(b1-6)]Man(a1-6)[Gal(b1-4)GlcNAc(b1-3)Gal(b1-4)GlcNAc(b1-3)Gal(b1-4)GlcNAc(b1-3)Gal(b1-4)GlcNAc(b1-2)Man(a1-3)]Man(b1-4)GlcNAc(b1-4)[Fuc(a1-6)]GlcNAc
# Outline: as §1
# [11] = molecular target: Gal(b1-4)GlcNAc(b1-3)Gal(b1-4)GlcNAc(b1-3)Gal(b1-4)GlcNAc(b1-3)Gal(b1-4)GlcNAc(b1-3)Gal(b1-4)GlcNAc(b1-2)Man(a1-3)[Gal(b1-4)GlcNAc(b1-3)Gal(b1-4)GlcNAc(b1-3)Gal(b1-4)GlcNAc(b1-3)Gal(b1-4)GlcNAc(b1-3)Gal(b1-4)GlcNAc(b1-2)Man(a1-6)]Man(b1-4)GlcNAc(b1-4)GlcNAc
# Outline: as §1
# [12] = molecular target: Gal(b1-4)GlcNAc(b1-3)Gal(b1-4)GlcNAc(b1-3)Gal(b1-4)GlcNAc(b1-3)Gal(b1-4)GlcNAc(b1-3)Gal(b1-4)GlcNAc(b1-2)Man(a1-3)[Gal(b1-4)GlcNAc(b1-3)Gal(b1-4)GlcNAc(b1-3)Gal(b1-4)GlcNAc(b1-3)Gal(b1-4)GlcNAc(b1-3)Gal(b1-4)GlcNAc(b1-2)Man(a1-6)]Man(b1-4)GlcNAc(b1-4)[Fuc(a1-6)]GlcNAc
# Outline: as §1
# [13] = molecular target: Gal(b1-4)GlcNAc(b1-3)Gal(b1-4)GlcNAc(b1-3)Gal(b1-4)GlcNAc(b1-3)Gal(b1-4)GlcNAc(b1-3)Gal(b1-4)GlcNAc(b1-2)[Gal(b1-4)GlcNAc(b1-3)Gal(b1-4)GlcNAc(b1-3)Gal(b1-4)GlcNAc(b1-3)Gal(b1-4)GlcNAc(b1-3)Gal(b1-4)GlcNAc(b1-6)]Man(a1-6)[Gal(b1-4)GlcNAc(b1-3)Gal(b1-4)GlcNAc(b1-3)Gal(b1-4)GlcNAc(b1-3)Gal(b1-4)GlcNAc(b1-3)Gal(b1-4)GlcNAc(b1-2)Man(a1-3)]Man(b1-4)GlcNAc(b1-4)[Fuc(a1-6)]GlcNAc
# Outline: as §1
# [14] = molecular target: Gal(b1-4)GlcNAc(b1-3)Gal(b1-4)GlcNAc(b1-3)Gal(b1-4)GlcNAc(b1-3)Gal(b1-4)GlcNAc(b1-3)Gal(b1-4)GlcNAc(b1-3)Gal(b1-4)GlcNAc(b1-2)Man(a1-3)[Gal(b1-4)GlcNAc(b1-3)Gal(b1-4)GlcNAc(b1-3)Gal(b1-4)GlcNAc(b1-3)Gal(b1-4)GlcNAc(b1-3)Gal(b1-4)GlcNAc(b1-3)Gal(b1-4)GlcNAc(b1-2)Man(a1-6)]Man(b1-4)GlcNAc(b1-4)GlcNAc
# Outline: as §1
# [15] = molecular target: Gal(b1-4)GlcNAc(b1-3)Gal(b1-4)GlcNAc(b1-3)GalNAc
# Outline: as §1
# [16] = molecular target: Gal(b1-4)GlcNAc(b1-3)Gal(b1-4)GlcNAc(b1-3)[Gal(b1-4)GlcNAc(b1-3)Gal(b1-4)GlcNAc(b1-6)]GalNAc
# Outline: as §1
# [17] = molecular target: Gal(b1-4)GlcNAc(b1-3)Gal(b1-4)GlcNAc(b1-6)[Gal(b1-3)]GalNAc
# Outline: as §1
# [18] = molecular target: Gal(b1-4)GlcNAc(b1-3)Gal(b1-4)[Fuc(a1-3)]GlcNAc(b1-3)Gal(b1-4)[Fuc(a1-3)]GlcNAc
# Outline: as §1
# [19] = molecular target: Gal(b1-4)GlcNAc(b1-3)GalNAc
# Outline: as §1
# [20] = molecular target: Gal(b1-4)GlcNAc(b1-3)[Fuc(a1-3)GlcNAc(b1-6)]Gal(b1-4)Glc
# Outline: as §1
# [21] = molecular target: Gal(b1-4)GlcNAc(b1-3)[Gal(b1-4)GlcNAc(b1-6)]Gal(b1-4)GlcNAc
# Outline: as §1
# [22] = molecular target: Gal(b1-4)GlcNAc(b1-3)[GlcNAc(b1-6)]Gal(b1-4)GlcNAc
# Outline: as §1
# [23] = molecular target: Gal(b1-4)GlcNAc(b1-6)Gal(b1-4)GlcNAc
# Outline: as §1
# [24] = molecular target: Gal(b1-4)GlcNAc(b1-6)GalNAc
# Outline: as §1
# [25] = molecular target: Gal(b1-4)GlcNAc(b1-6)[Gal(b1-3)]GalNAc
# Outline: as §1
# [26] = molecular target: Gal(b1-4)GlcNAc(b1-6)[Gal(b1-4)GlcNAc(b1-3)]GalNAc
# Outline: as §1
# Gal(b1-4)GlcNAc6P = molecular target: Gal(b1-4)GlcNAc6P
# Outline: as §1
# Gal(b1-6)Gal = molecular target: Gal(b1-6)Gal
# Outline: as §1
# Gal3S(b1-3)GalNAc = molecular target: Gal3S(b1-3)GalNAc
# Outline: as §1
# Gal3S(b1-3)GlcNAc = molecular target: Gal3S(b1-3)GlcNAc
# Outline: as §1
# [27] = molecular target: Gal3S(b1-3)[Fuc(a1-4)]GlcNAc
# Outline: as §1
# Gal3S(b1-4)Glc = molecular target: Gal3S(b1-4)Glc
# Outline: as §1
# Gal3S(b1-4)Glc6S = molecular target: Gal3S(b1-4)Glc6S
# Outline: as §1
# Gal3S(b1-4)GlcNAc = molecular target: Gal3S(b1-4)GlcNAc
# Outline: as §1
# [28] = molecular target: Gal3S(b1-4)[Fuc(a1-3)]Glc6S
# Outline: as §1
# [29] = molecular target: Gal3S(b1-4)[Fuc(a1-3)]GlcNAc
# Outline: as §1
# [30] = molecular target: Gal3S(b1-4)[Fuc(a1-3)]GlcNAc6S
# Outline: as §1
# Gal3S4S(b1-4)GlcNAc = molecular target: Gal3S4S(b1-4)GlcNAc
# Outline: as §1
# Gal3S6S(b1-4)GlcNAc = molecular target: Gal3S6S(b1-4)GlcNAc
# Outline: as §1
# Gal3S6S(b1-4)GlcNAc6S = molecular target: Gal3S6S(b1-4)GlcNAc6S
# Outline: as §1
# Gal4S(b1-4)GlcNAc = molecular target: Gal4S(b1-4)GlcNAc
# Outline: as §1
# Gal4S6S(b1-4)GlcNAc = molecular target: Gal4S6S(b1-4)GlcNAc
# Outline: as §1
# Gal6P(b1-4)GlcNAc = molecular target: Gal6P(b1-4)GlcNAc
# Outline: as §1
# Gal6S(b1-3)GlcNAc = molecular target: Gal6S(b1-3)GlcNAc
# Outline: as §1
# Gal6S(b1-3)GlcNAc6S = molecular target: Gal6S(b1-3)GlcNAc6S
# Outline: as §1
binder,measurement,setting,value
B1,glycan array binding signal (z-score),[1],1.84
same,glycan array binding signal (z-score),[2],-0.323
same,glycan array binding signal (z-score),[3],2.17
same,glycan array binding signal (z-score),[4],-0.319
same,glycan array binding signal (z-score),[5],0.47
same,glycan array binding signal (z-score),[6],-0.658
same,glycan array binding signal (z-score),[7],-0.74
same,glycan array binding signal (z-score),[8],0.553
same,glycan array binding signal (z-score),[9],-0.755
same,glycan array binding signal (z-score),[10],1.51
same,glycan array binding signal (z-score),[11],2.42
same,glycan array binding signal (z-score),[12],0.001
same,glycan array binding signal (z-score),[13],0.95
same,glycan array binding signal (z-score),[14],0.731
same,glycan array binding signal (z-score),[15],-1.07
same,glycan array binding signal (z-score),[16],0.074
same,glycan array binding signal (z-score),[17],-0.064
same,glycan array binding signal (z-score),[18],-0.347
same,glycan array binding signal (z-score),[19],0.542
same,glycan array binding signal (z-score),[20],-0.238
same,glycan array binding signal (z-score),[21],1.16
same,glycan array binding signal (z-score),[22],0.746
same,glycan array binding signal (z-score),[23],-1.58
same,glycan array binding signal (z-score),[24],0.519
same,glycan array binding signal (z-score),[25],-0.075
same,glycan array binding signal (z-score),[26],-0.694
same,glycan array binding signal (z-score),Gal(b1-4)GlcNAc6P,-1.18
same,glycan array binding signal (z-score),Gal(b1-6)Gal,1.66
same,glycan array binding signal (z-score),Gal3S(b1-3)GalNAc,-0.015
same,glycan array binding signal (z-score),Gal3S(b1-3)GlcNAc,1.11
same,glycan array binding signal (z-score),[27],-0.283
same,glycan array binding signal (z-score),Gal3S(b1-4)Glc,1.13
same,glycan array binding signal (z-score),Gal3S(b1-4)Glc6S,0.391
same,glycan array binding signal (z-score),Gal3S(b1-4)GlcNAc,-0.163
same,glycan array binding signal (z-score),[28],1.02
same,glycan array binding signal (z-score),[29],-0.296
same,glycan array binding signal (z-score),[30],1.2
same,glycan array binding signal (z-score),Gal3S4S(b1-4)GlcNAc,-1.28
same,glycan array binding signal (z-score),Gal3S6S(b1-4)GlcNAc,-0.673
same,glycan array binding signal (z-score),Gal3S6S(b1-4)GlcNAc6S,0.711
same,glycan array binding signal (z-score),Gal4S(b1-4)GlcNAc,-0.412
same,glycan array binding signal (z-score),Gal4S6S(b1-4)GlcNAc,1.93
same,glycan array binding signal (z-score),Gal6P(b1-4)GlcNAc,-0.224
same,glycan array binding signal (z-score),Gal6S(b1-3)GlcNAc,-1.94
same,glycan array binding signal (z-score),Gal6S(b1-3)GlcNAc6S,-0.649

# As a short view, part of the list above.
binder,measurement,setting,value
B1,glycan array binding signal (z-score),[15],-1.07
same,glycan array binding signal (z-score),[16],0.074
